The values are deposited in ChEMBL (CHEMBL3988442, “University of Dundee, Small-Polar-MMV Screening Library” (2021)).

Protein sequences, listed by entry. Tags and fused reporters are not part of them.
UniProt E9BF75, entry or part of it: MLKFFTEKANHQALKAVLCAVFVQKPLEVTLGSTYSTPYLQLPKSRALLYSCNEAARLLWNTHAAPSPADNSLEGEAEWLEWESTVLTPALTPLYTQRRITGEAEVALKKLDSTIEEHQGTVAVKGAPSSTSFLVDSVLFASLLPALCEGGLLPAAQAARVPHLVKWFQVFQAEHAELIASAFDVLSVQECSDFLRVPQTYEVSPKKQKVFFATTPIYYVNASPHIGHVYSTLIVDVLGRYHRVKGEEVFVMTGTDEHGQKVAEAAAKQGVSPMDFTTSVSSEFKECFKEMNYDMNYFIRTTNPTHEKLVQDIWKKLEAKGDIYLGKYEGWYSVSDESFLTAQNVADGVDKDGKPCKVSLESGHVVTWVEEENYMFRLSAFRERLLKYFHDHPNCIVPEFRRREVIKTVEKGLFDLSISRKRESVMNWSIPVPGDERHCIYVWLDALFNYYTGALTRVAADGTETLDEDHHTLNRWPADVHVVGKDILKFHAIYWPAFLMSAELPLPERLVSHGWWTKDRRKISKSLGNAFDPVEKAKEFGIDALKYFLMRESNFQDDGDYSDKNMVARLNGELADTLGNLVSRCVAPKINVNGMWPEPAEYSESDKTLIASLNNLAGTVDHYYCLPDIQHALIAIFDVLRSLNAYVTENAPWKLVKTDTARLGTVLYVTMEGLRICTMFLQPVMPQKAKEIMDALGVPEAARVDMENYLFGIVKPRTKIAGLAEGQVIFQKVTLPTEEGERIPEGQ

A: 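Methionyl-tRNA synthetase (putative), Leishmania donovani (UniProt E9BF75). Primary screen of methionyl-tRNA synthetase; the read-out is not stated. The test concentration is not given. The values are filed as inhibition. Of about 68,000 compounds tested this way, about 24 (0.035%) reached 50% or more in at least one test.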
B: 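Assay on Mycobacterium tuberculosis, filed only as a heat shock assay from Cornell; the read-out is not stated. The concentration is filed as 10 mM, unlikely as a test dose, so the dose is not known. Direction is inferred from retests: higher values go with stronger inhibition. Size under these conditions: about 69,000 compounds, about 930 of them at 50% or above in at least one test.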

Results are percentages, as filed. The controls that fix the scale are not given in the record; negative values are as filed. The compounds are a random part of those screened. A dash means the value is not listed here; it may have been measured.

| structure | A | B |
|---|---|---|
| `O=C(c1ccc(F)cc1F)N(CC(F)(F)F)C1CCOCC1` | 14.63% | 4.477% |
| `O[C@@H]1C[C@@H](c2nc(-c3ccccc3)no2)N(CC2CCCCC2)C1` | 1.648% | -41.41% |
| `O=C(NCC(F)F)c1ccc(S(=O)(=O)NCCc2cn[nH]c2)cc1` | 9.719% | 16.05% |
| `Cc1nc(C)n(CC2CCCN(c3ccnc(-c4ccccc4)n3)C2)n1` (centres unmarked) | 19.22% | 9.104% |
| `O=C(NCCNc1ncccn1)NCCSC(F)(F)F` | 6.044% | 13.17% |
| `CCC(C)NC(=O)c1ccc(CNC(=O)COC)cc1` (centres unmarked) | 0% | 27.11% |
| `Cc1occc1C(=O)N1C[C@@H]2OCCN(CCN3CCCC3)[C@@H]2C1` | 7.96% | - |
| `O=C(O)C(F)(F)F.[H][C@@]12CCN(C3CCCC3)[C@]1([H])CC[C@H](C(=O)N1CCOCC1)O2` | - | 33.35% |
| `Cc1nc2ccc(C(=O)N3CCC(COc4ccccn4)CC3)cc2[nH]1` | 10.76% | -20.39% |
| `Cc1cc(C)n(C2CN(CC(=O)NC3CCS(=O)(=O)C3)C2)n1` (centres unmarked) | 12.32% | 11.81% |
| `CCCc1ccc(CN2CCC3(CCC(=O)N(C)CC3)CC2)o1` | 9.214% | 0.2116% |
| `CC(C)N1CCC(CN2CCn3nc(CNC(=O)N(C)C)cc3C2)CC1` | 6.02% | 1.564% |
| `COc1cccc2c1OCC(NCCCOc1cccnc1)C2` (centres unmarked) | 9.138% | -29.03% |
| `Cc1cc(C)cc(NC(=O)CN2CCCC(n3cncn3)C2)c1` (centres unmarked) | 13.65% | 1.271% |
| `Cc1ccccc1CN1CCCN(CCN2CCOC2=O)CC1` | 0% | 7.315% |
| `O=C(Nc1ccc2occc2c1)N1CCCC(O)(CO)CC1` (centres unmarked) | 13.73% | 7.853% |
| `CCn1cnnc1C1CCN(C(=O)c2cc(F)ccc2OC)CC1` | 19.09% | -10.1% |
| `Cc1cnn(CC2CCCN2C(=O)c2nccc3ccccc23)c1` (centres unmarked) | 14.58% | 12.53% |
| `O=C(O)C(F)(F)F.[H][C@@]12CCN(C3CCOC3)[C@@]1([H])CC(=O)N2Cc1csc(C)n1` (some centres unmarked) | - | -20.37% |
| `CN(C)[C@@H]1CCN(C(=O)c2ccco2)[C@H]1Cc1cnn(C)c1.O=C(O)C(F)(F)F` | - | -2.125% |
| `Cc1nc(C(=O)N2CCC(c3nnc(Cn4ccnc4)n3C)CC2)cs1` | -7.975% | -1.48% |
| `Cc1c(Br)cnn1CCC(=O)N(C)Cc1c(Cl)cnn1C` | 9.84% | -7.345% |
| `O=C(O)C(F)(F)F.O=C(O)C(F)(F)F.c1cc(CN2CCC3(CC2)CC(N2CCCC2)CO3)co1` (centres unmarked) | - | -7.597% |
| `CC(C)CN1CCC2(CC1)CC(NS(C)(=O)=O)c1ccccc1O2.O=C(O)C(F)(F)F` (centres unmarked) | - | -38.69% |
| `CC(C)(C)Oc1ccc(NCC(=O)NCc2ccco2)cc1` | 20.43% | -15.59% |
| `Cc1nn(C)c(C)c1C1CCCN1C(=O)c1ccc(NC2CC2)nc1` (centres unmarked) | 13.65% | 7.981% |
| `CC(=O)NCC(=O)N1CCN(CC2CC2)c2ncccc2C1` | 18.47% | 3.819% |
| `O=C(O)C(F)(F)F.[H][C@@]12CCCO[C@]1([H])[C@H](N(C)Cc1cncnc1)CN2C(=O)c1ccco1` | - | 50.13% |
| `c1ccc(Cc2noc(-c3ccc(NCC4CCCCO4)nc3)n2)cc1` (centres unmarked) | 13.33% | 19.79% |
| `COCC1CN(Cc2ccsc2)Cc2cnn(C)c21` (centres unmarked) | 14.21% | -13.52% |
| `N#Cc1cc(F)c(NCCc2ccc(F)cc2)c(F)c1` | -12.05% | 26.2% |
| `CC(=O)NC1CCN(C(=O)Nc2cccc(SC(F)F)c2)CC1` | 19.05% | -5.155% |
| `O=C(O)C(F)(F)F.O=C(O)C(F)(F)F.[H][C@@]12CCN(Cc3ccc4c(c3)OCO4)C[C@]1([H])[C@@H](CN1CCCC1)OC2` | - | 3.151% |
| `Cc1noc(C)c1CN1CCC2(COCc3cnc(N(C)C)nc32)C1.O=C(O)C(F)(F)F` (centres unmarked) | - | -23% |
| `COc1cccc(N2CCC(CNC(=O)N(C)Cc3ccco3)C2)c1` (centres unmarked) | 22.03% | 11.36% |
| `COc1ncccc1CN1CCn2c(C(=O)N3CCCC3)cnc2C1.O=C(O)C(F)(F)F.O=C(O)C(F)(F)F` | - | -22.41% |
| `CN(C)C(=O)CN1CCC2(CCN(Cc3nccs3)CC2)C1=O.O=C(O)C(F)(F)F` | - | -10.95% |
| `Cc1ccc(C(C(=O)N(C)CCc2cn[nH]c2)N(C)C)cc1` (centres unmarked) | 12.32% | -9.103% |
| `CCOc1ncccc1NC(=O)NC1CCN(S(C)(=O)=O)CC1` | 1.742% | -3.185% |
| `CC(C)Cc1nnc(NCc2ccsc2)o1` | 19.37% | 33.65% |
| `O=C(NCCSC1CCCC1)c1c(F)cccc1F` | 4.337% | 15.39% |
| `OCC1CCCN1c1cc(N2CCN(c3ccccn3)CC2)ncn1` (centres unmarked) | 18.75% | 0.3449% |
| `O=C(c1ccco1)N1CCCC12CCN(c1ncccn1)CC2` | 19.61% | - |
| `CN(Cc1ccsc1)C(=O)c1cccc(S(=O)(=O)NCC2CCCO2)c1` (centres unmarked) | 17.05% | -3.777% |
| `CCOC(=O)Cn1ccc(NC(=O)Cc2ccccc2F)n1` | 7.094% | -5.738% |
| `CC1c2ncc(CNC(=O)C3CC3)n2CCN1Cc1cnn(C)c1.O=C(O)C(F)(F)F.O=C(O)C(F)(F)F` (centres unmarked) | - | 23.76% |
| `N#Cc1cc(N2CCC(CS(N)(=O)=O)CC2)nc2ccccc12` | 12.5% | 0.6656% |
| `COc1cccc(N2CC3(CCN(c4cnccn4)C3)CC2=O)c1` (centres unmarked) | 0.7092% | -19.11% |
| `COCC(=O)N1CCCC2(CCN(c3ccccc3)C2=O)C1` (centres unmarked) | 20.33% | 6.147% |
| `Cc1cc(CN2CCc3nc(N4CCOCC4)nc(O)c3CC2)c(C)s1` | 14.17% | 7.15% |
| `CC(Nc1ccn(Cc2ccccn2)n1)C(=O)NC(C)(C)C` (centres unmarked) | 1.504% | -12.68% |
| `O=S1(=O)C[C@@H]2[C@H](C1)N(Cc1nc3ccccc3[nH]1)CCN2CC1CC1` | 8.591% | - |
| `Cc1ccc(N(C)CC(O)COCc2ccccc2F)c(C)c1` (centres unmarked) | 10.87% | -30.36% |
| `COc1ccc(N(Cc2ccco2)C(=O)COC(C)C)cc1F` | 9.023% | -23.4% |
| `O=C(c1cnc(-c2cnccn2)s1)N1CCCC1Cn1cccn1` (centres unmarked) | 19.94% | 5.854% |
| `CNc1cncc(C2CCCN2Cc2ccccn2)n1` (centres unmarked) | 11.3% | -4.503% |
| `COCCN(Cc1ccc(F)cc1Cl)C(=O)c1cc[n+]([O-])cc1` | 8.696% | 4.952% |
| `O=C(c1ccc[nH]1)N1CCc2nnc(Cn3cccc3)n2CC1` | 11.54% | 12.96% |
| `c1ccc2c(N3CCCCC3)cnnc2c1` | 9.023% | -26.75% |
| `CS(=O)(=O)N1CCC(C(=O)NC(Cc2ccsc2)c2nccs2)CC1` (centres unmarked) | 15.41% | -0.5142% |
| `CCC[C@@H]1CN(Cc2ccccc2C#N)C[C@H]1NC(C)=O` | 9.859% | 9.167% |
| `CNC(=O)[C@@H](c1ccccc1)N1CCC[C@H]1C(=O)NCc1cccnc1.Cl.Cl` | - | -8.341% |
| `CC(NC(=O)Nc1ccc(N2CCCC2)nc1)c1nncn1C` (centres unmarked) | 14.42% | -14.22% |
| `COc1cc(CN2CCCC2)ccc1Oc1ncccc1C(F)(F)F` | 7.035% | -12.36% |
| `Cn1ccnc1COc1ccc(CSc2nnnn2C2CC2)cc1` | 10.37% | -12.28% |
| `COc1ccc(CN2C[C@@H]3OCCN(CCN4CCCC4)[C@@H]3C2)cc1` | 1.333% | - |
| `CCc1nnsc1-c1nc(C(C)C)nn1-c1ccc2c(c1)OCO2` | 8.065% | -10.29% |
| `CC(C)N1CCC2(CC1)C[C@@H](O)[C@H](c1ccccc1)NC2=O` | 10.32% | -26.53% |
| `CCN(Cc1ccncc1)CC1(O)CCN(C(=O)c2cnn(C)c2)C1` (centres unmarked) | 18.01% | -3.849% |
| `[H][C@@]12C[C@H](C(=O)N3CCCC3)[C@@]([H])(CN(C(=O)NCC3CCCCC3)C1)O2` | - | -29.22% |
| `Cc1cc(C)n(C2CCCN(C(=O)CCCc3ccccn3)C2)n1` (centres unmarked) | 18.23% | -16.8% |
| `CCN(CC(=O)Nc1c(C)nn(C)c1C)CC(O)c1ccc(C)cc1` (centres unmarked) | -1.344% | -21.76% |
| `CN(C(=O)Cc1c[nH]c2ccccc12)C1CCN(c2ccccn2)CC1` | 11.19% | 4.396% |
| `Cc1ccc(N(CC(=O)N2CCCCC2)C(=O)C2CCCO2)cc1` (centres unmarked) | 9.747% | -0.08324% |
| `CCS(=O)(=O)N1CCCCC1c1nc(CC(C)C)no1` (centres unmarked) | 16.71% | -32.89% |
| `O=C(O)C(F)(F)F.[H][C@@]12OCCN(C(=O)N3CCCC3)[C@@]1([H])CC[C@@H]2Oc1ccccn1` | - | 0.1764% |
| `CC(C)c1ncc2c(n1)CN(Cc1nnc(Cc3ccccc3)o1)CC2` | 21.9% | -13.67% |
| `CNC(=O)CN(C)CC1(c2ccc(Br)cc2)CC1` | 7.182% | 5.349% |
| `N#CCSCCCN1CCCC(C(=O)N2CCCCCC2)C1` (centres unmarked) | 5.08% | 2.559% |
| `Cc1nn(C)c(C)c1C1COCCN1C(=O)NC1CC1` (centres unmarked) | 0.304% | -11.24% |
| `O=C(N[C@@H]1CCNC[C@H]1O)c1ccccc1OC(F)(F)C(F)F` | 11.98% | 6.891% |

Repeated from the top, 9 entries:

| structure | A | B |
|---|---|---|
| `O=C(c1ccc(F)cc1F)N(CC(F)(F)F)C1CCOCC1` | 14.63% | 4.477% |
| `O[C@@H]1C[C@@H](c2nc(-c3ccccc3)no2)N(CC2CCCCC2)C1` | 1.648% | -41.41% |
| `O=C(NCC(F)F)c1ccc(S(=O)(=O)NCCc2cn[nH]c2)cc1` | 9.719% | 16.05% |
| `Cc1nc(C)n(CC2CCCN(c3ccnc(-c4ccccc4)n3)C2)n1` (centres unmarked) | 19.22% | 9.104% |
| `O=C(NCCNc1ncccn1)NCCSC(F)(F)F` | 6.044% | 13.17% |
| `CCC(C)NC(=O)c1ccc(CNC(=O)COC)cc1` (centres unmarked) | 0% | 27.11% |
| `Cc1occc1C(=O)N1C[C@@H]2OCCN(CCN3CCCC3)[C@@H]2C1` | 7.96% | - |
| `O=C(O)C(F)(F)F.[H][C@@]12CCN(C3CCCC3)[C@]1([H])CC[C@H](C(=O)N1CCOCC1)O2` | - | 33.35% |
| `Cc1nc2ccc(C(=O)N3CCC(COc4ccccn4)CC3)cc2[nH]1` | 10.76% | -20.39% |